For the assay, the target named is TFII‐I (human (endogenous in SK-Hep-1)) (UniProt P78347). The assay can be described thus: co-IP; lysate of SK-Hep-1 cells with stable overexpression of circARHGAP35 protein; IP with TFII-I or control IgG antibody; immunoblot with the indicated antibodies. In general terms: A western blot detects proteins with antibodies after separation by electrophoresis.

Protein sequences, listed by entry. Tags and fused reporters are not part of them.
UniProt P78347: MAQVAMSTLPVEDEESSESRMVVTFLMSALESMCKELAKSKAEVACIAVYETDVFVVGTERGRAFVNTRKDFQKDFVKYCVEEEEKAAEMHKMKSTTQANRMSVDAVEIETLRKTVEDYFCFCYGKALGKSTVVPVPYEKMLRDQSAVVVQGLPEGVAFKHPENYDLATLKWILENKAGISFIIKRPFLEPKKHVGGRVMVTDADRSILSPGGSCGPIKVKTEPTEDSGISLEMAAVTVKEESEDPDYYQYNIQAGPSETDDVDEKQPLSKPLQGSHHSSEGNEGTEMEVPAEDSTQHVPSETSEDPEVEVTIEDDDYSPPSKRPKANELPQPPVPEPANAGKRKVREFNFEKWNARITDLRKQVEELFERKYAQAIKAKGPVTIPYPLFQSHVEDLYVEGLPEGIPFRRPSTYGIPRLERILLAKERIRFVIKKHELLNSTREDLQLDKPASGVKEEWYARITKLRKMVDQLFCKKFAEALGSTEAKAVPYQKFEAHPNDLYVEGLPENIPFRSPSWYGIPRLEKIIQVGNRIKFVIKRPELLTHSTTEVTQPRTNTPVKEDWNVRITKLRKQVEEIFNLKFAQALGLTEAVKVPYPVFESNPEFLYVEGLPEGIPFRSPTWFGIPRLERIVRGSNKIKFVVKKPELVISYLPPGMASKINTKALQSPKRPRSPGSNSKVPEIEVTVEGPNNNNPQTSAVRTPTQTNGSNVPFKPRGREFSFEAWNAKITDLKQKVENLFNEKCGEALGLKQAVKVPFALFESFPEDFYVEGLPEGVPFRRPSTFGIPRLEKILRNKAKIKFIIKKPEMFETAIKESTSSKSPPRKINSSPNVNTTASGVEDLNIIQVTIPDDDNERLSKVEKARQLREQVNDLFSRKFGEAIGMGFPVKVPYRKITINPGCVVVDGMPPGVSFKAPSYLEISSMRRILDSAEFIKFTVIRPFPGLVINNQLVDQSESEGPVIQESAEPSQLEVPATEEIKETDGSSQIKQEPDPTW

From PMC8261482 come the findings set out here.

Results are given in words; binding and its absence hold for the method and conditions named. In cells and extracts the contact can be indirect. Some results given as binding are weak or reduced against the parent protein; the word gives no strength.

B1: ARHGAP35 protein (protein, UniProt Q9NRY4 1-1499)
chain: MMMARKQDVRIPTYNISVVGLSGTEKEKGQCGIGKSCLCNRFVRPSADEFHLDHTSVLSTSDFGGRVVNNDHFLYWGEVSRSLEDCVECKMHIVEQTEFIDDQTFQPHRSTALQPYIKRAAATKLASAEKLMYFCTDQLGLEQDFEQKQMPDGKLLVDGFLLGIDVSRGMNRNFDDQLKFVSNLYNQLAKTKKPIVVVLTKCDEGVERYIRDAHTFALSKKNLQVVETSARSNVNVDLAFSTLVQLIDKSRGKTKIIPYFEALKQQSQQIATAKDKYEWLVSRIVKNHNENWLSVSRKMQASPEYQDYVYLEGTQKAKKLFLQHIHRLKHEHIERRRKLYLAALPLAFEALIPNLDEIDHLSCIKAKKLLETKPEFLKWFVVLEETPWDATSHIDNMENERIPFDLMDTVPAEQLYEAHLEKLRNERKRVEMRRAFKENLETSPFITPGKPWEEARSFIMNEDFYQWLEESVYMDIYGKHQKQIIDKAKEEFQELLLEYSELFYELELDAKPSKEKMGVIQDVLGEEQRFKALQKLQAERDALILKHIHFVYHPTKETCPSCPACVDAKIEHLISSRFIRPSDRNQKNSLSDPNIDRINLVILGKDGLARELANEIRALCTNDDKYVIDGKMYELSLRPIEGNVRLPVNSFQTPTFQPHGCLCLYNSKESLSYVVESIEKSRESTLGRRDNHLVHLPLTLILVNKRGDTSGETLHSLIQQGQQIASKLQCVFLDPASAGIGYGRNINEKQISQVLKGLLDSKRNLNLVSSTASIKDLADVDLRIVMCLMCGDPFSADDILFPVLQSQTCKSSHCGSNNSVLLELPIGLHKKRIELSVLSYHSSFSIRKSRLVHGYIVFYSAKRKASLAMLRAFLCEVQDIIPIQLVALTDGAVDVLDNDLSREQLTEGEEIAQEIDGRFTSIPCSQPQHKLEIFHPFFKDVVEKKNIIEATHMYDNAAEACSTTEEVFNSPRAGSPLCNSNLQDSEEDIEPSYSLFREDTSLPSLSKDHSKLSMELEGNDGLSFIMSNFESKLNNKVPPPVKPKPPVHFEITKGDLSYLDQGHRDGQRKSVSSSPWLPQDGFDPSDYAEPMDAVVKPRNEEENIYSVPHDSTQGKIITIRNINKAQSNGSGNGSDSEMDTSSLERGRKVSIVSKPVLYRTRCTRLGRFASYRTSFSVGSDDELGPIRKKEEDQASQGYKGDNAVIPYETDEDPRRRNILRSLRRNTKKPKPKPRPSITKATWESNYFGVPLTTVVTPEKPIPIFIERCIEYIEATGLSTEGIYRVSGNKSEMESLQRQFDQDHNLDLAEKDFTVNTVAGAMKSFFSELPDPLVPYNMQIDLVEAHKINDREQKLHALKEVLKKFPKENHEVFKYVISHLNKVSHNNKVNLMTSENLSICFWPTLMRPDFSTMDALTATRTYQTIIELFIQQCPFFFYNRPITEPPGARPSSPSAVASTVPFLTSTPVTSQPSPPQSPPPTPQSPMQPLLPSQLQAEHTL
Take B1: the binding result was “binds weakly”.
